Patent US20250257361A1, “COMPOSITIONS AND METHODS FOR TREATING LIVER DISEASES WITH SIRNAS TARGETING SMYD2” (The Board of Regents of The University of Texas System, priority 2022, published 2025)
Some of these results come from one statement about several compounds together.

What follows are substances tested on human SMYD2 (assay: SMYD2 luciferase reporter assay (dual Renilla/Firefly) for siRNA knockdown in Cos7 cells).
Assay type: cell-based

Reduction of SMYD2 expression, more than 70%:
SMYD2 894: siRNA to human SMYD2; sense CACGCAACGUCAUUGAAGAUU (SEQ 68), antisense UCUUCAAUGACGUUGCGUGUU (SEQ 125) (listed as RNA, chemistry not given here)
SMYD2 1077: siRNA to human SMYD2; sense CCCUGCAAUAUGGACAGAAUU (SEQ 65), antisense UUCUGUCCAUAUUGCAGGGUU (SEQ 122) (listed as RNA, chemistry not given here)
SMYDS 588: siRNA to human SMYD2; sense CAGCGAUAUUUCCUGAUGUUU (SEQ 67), antisense ACAUCAGGAAAUAUCGCUGUU (SEQ 124) (listed as RNA, chemistry not given here)
